No constants are given. Whether binding was seen depends on the method and setting. In cells and extracts the contact can be indirect. Some results given as binding are weak or reduced against the parent protein; the word gives no strength.
Molecular target: PAX6 (endogenous, ARPE19 cells) (human (endogenous in ARPE19)) (UniProt P26367)
Experiment: co-IP; reciprocal co-IP from ARPE19 protein extracts (cells scraped in RIPA buffer with protease inhibitor); IP with rabbit anti-PAX6 or rabbit anti-MITF, IgG as control; blot with mouse anti-PAX6 or mouse anti-MITF

By UniProt entry, the sequences of proteins in these tests, tags left out.
UniProt P26367: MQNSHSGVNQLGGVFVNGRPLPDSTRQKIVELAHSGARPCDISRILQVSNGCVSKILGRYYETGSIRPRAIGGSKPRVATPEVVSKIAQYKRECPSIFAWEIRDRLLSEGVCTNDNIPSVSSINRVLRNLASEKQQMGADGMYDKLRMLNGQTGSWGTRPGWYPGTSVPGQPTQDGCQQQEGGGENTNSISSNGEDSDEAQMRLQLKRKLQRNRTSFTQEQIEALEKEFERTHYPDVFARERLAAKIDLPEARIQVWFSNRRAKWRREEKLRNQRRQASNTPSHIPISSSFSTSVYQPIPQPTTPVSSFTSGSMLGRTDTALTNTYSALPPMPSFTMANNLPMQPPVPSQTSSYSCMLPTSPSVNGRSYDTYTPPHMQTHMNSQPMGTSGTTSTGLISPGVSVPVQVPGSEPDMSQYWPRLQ
UniProt O75030: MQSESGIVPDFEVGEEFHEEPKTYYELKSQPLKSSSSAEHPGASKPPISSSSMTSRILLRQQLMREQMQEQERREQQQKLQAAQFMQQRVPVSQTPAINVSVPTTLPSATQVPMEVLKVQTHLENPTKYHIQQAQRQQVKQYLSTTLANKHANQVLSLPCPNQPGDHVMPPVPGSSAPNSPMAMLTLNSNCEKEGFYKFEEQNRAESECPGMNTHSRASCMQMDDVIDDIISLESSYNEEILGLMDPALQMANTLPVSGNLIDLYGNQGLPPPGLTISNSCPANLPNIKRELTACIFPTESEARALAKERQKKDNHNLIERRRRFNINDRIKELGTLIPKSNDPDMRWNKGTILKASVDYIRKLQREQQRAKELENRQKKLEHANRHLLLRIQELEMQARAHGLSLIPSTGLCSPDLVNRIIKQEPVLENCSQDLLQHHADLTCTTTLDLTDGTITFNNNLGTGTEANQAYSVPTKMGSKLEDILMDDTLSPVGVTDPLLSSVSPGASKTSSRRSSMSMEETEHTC

MITF (microphthalmia-associated transcription factor; endogenous, ARPE19 cells) (from UniProt O75030 1-526)
binding: binds

Source: PMC4038462
